Experimental data published in publication PMC7819943, “Rice protein-binding microarrays: a tool to detect cis-acting elements near promoter regions in rice”.
Some of the results follow.

Sequences of proteins named here, by UniProt entry; tags and fusion partners are left off.
UniProt Q0JBA9, entry or part of it: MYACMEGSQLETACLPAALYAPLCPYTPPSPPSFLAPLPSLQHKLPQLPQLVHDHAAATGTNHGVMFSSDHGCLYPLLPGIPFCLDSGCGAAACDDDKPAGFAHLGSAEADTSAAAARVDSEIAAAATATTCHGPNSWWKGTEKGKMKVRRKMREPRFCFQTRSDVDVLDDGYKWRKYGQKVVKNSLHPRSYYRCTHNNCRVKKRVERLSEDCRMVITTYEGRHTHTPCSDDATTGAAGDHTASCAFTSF

target: OsWRKY34 (Oryza sativa, UniProt Q0JBA9 1-250); assay: protein-binding microarray (RPBM); PBS, 2% BSA, 51.3 ng/ul salmon testes DNA, 50 uM zinc acetate, 200 nM TF, 25 C, 1 h; high values mean tight binding; conditions: protein: recombinant; tags: N-terminal polyhistidine and DsRed monomer fusion (pET32a); label: CyDye5-dUTP incorporated in the synthesized complementary strand; 3' TTTTT single-stranded linker to array surface; dsDNA, one strand shown
In short: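 A custom Agilent array was converted to double-stranded form by primer extension with Cy5-dUTP and blocked with 2% BSA. Protein at 200 nM in PBS with 2% BSA, salmon testes DNA and 50 µM zinc acetate was applied for 1 h at 25 °C, followed by washing. The proteins were polyhistidine–DsRed N-terminal fusions of transcription factors, expressed in E. coli BL21-CodonPlus and Ni–NTA-purified. The binding signal is per-feature fluorescence intensity (arbitrary units) from an Axon 4000B scanner.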

| Sequence | binding signal |
| --- | --- |
| TTTATTTCTCATCTAGATTTACTAACGTTCATATAAATTTCGGAGTCACCTAGTGCAG | 8240 fluorescence intensity (a.u.) |
| CCTTGAATTTTGCCAAGTGCCATTCACCTTGTCTCTAGTCCGGAGTCACCTAGTGCAG | 8680 fluorescence intensity (a.u.) |
| ACGTACTCTCTCACCTAATCAAAGGGATACTTGTGCTGTACGGAGTCACCTAGTGCAG | 8730 fluorescence intensity (a.u.) |
| ATATACATAAGCTTCTCGTGCACACACAAACTAACATAAACGGAGTCACCTAGTGCAG | 8610 fluorescence intensity (a.u.) |
| GTAGTATTGCCTCGCCTAAGCCATCAACAACGTACAGTATCGGAGTCACCTAGTGCAG | 10100 fluorescence intensity (a.u.) |
| CCTGCTGGTTCGCTCAATTCATCACAGGTATGCTCCCATACGGAGTCACCTAGTGCAG | 8920 fluorescence intensity (a.u.) |
| ATATATATCTTCTCGTGTAGTTAATAAAATACTTATACACCGGAGTCACCTAGTGCAG | 9030 fluorescence intensity (a.u.) |
| GGGCCGCTTTTTTGTGGGGTTAATGTTGTAGGAGTATTTGCGGAGTCACCTAGTGCAG | 10700 fluorescence intensity (a.u.) |
| AAAAACCTCAATGAATGGTGCCCTTATTCGTTTGTTTTCCCGGAGTCACCTAGTGCAG | 10300 fluorescence intensity (a.u.) |
| GATCACATGACTTCCTTCTCGCGTTTACCTGATCGCTCTTCGGAGTCACCTAGTGCAG | 8290 fluorescence intensity (a.u.) |
| GTGTTTTAGATGCCTTTCCTGTGGACCGTTCGATCCTGCACGGAGTCACCTAGTGCAG | 9630 fluorescence intensity (a.u.) |
| CTCATATATCCTTTCGATGTTGTTCACACGTATTCCTTGCCGGAGTCACCTAGTGCAG | 11000 fluorescence intensity (a.u.) |
| GTCCACTGAACCATATTAATTCCAGTGATTAATCTCTTCTCGGAGTCACCTAGTGCAG | 8950 fluorescence intensity (a.u.) |
| ACCACCGCGCCGCCGACTCCGCCCCACCACCCGTCGCCTCCGGAGTCACCTAGTGCAG | 8760 fluorescence intensity (a.u.) |
| TGTGTTGTTTTATATTCAAACTTGATTACCCCGTAGTCAGCGGAGTCACCTAGTGCAG | 8070 fluorescence intensity (a.u.) |
| TTATCATTCTTCTCCACCTTGTTCCTGTTGTTGCGTCTACCGGAGTCACCTAGTGCAG | 16100 fluorescence intensity (a.u.) |
| CGTATATATTCTTTCCGACCTGGGCCCTGCAAAATTCCTTCGGAGTCACCTAGTGCAG | 10400 fluorescence intensity (a.u.) |
| TCGTTATGCCTTTTGGTTTGGTTTATCCCTTCCTCTTGAACGGAGTCACCTAGTGCAG | 10100 fluorescence intensity (a.u.) |
| TATGGAATTATTATTTATTTTGTTTGTAACTTGCTTTATTCGGAGTCACCTAGTGCAG | 9260 fluorescence intensity (a.u.) |
| TATTTCCATACCGCTCGCCCGCTCTTTTTTCCGAAATCAGCGGAGTCACCTAGTGCAG | 9770 fluorescence intensity (a.u.) |
| TCATCCGCACCAACACCATTAGTTATATTACCCACACATCCGGAGTCACCTAGTGCAG | 8520 fluorescence intensity (a.u.) |
| TCCACCACACACACGCCAGTCGCCGCCGGCTTTTGCTTCCCGGAGTCACCTAGTGCAG | 9750 fluorescence intensity (a.u.) |
| AGGTGGCGAGCAGAGCAGGGGAGGGGAGGGGATCCTGCAGCGGAGTCACCTAGTGCAG | 12600 fluorescence intensity (a.u.) |
| TCTCATTGCACCTTGGTTCTTATCATACTATGCTACCCAACGGAGTCACCTAGTGCAG | 8060 fluorescence intensity (a.u.) |
| CCATCACTCGATTTTTCTCATTTTTGACTCTAAAGCTTATCGGAGTCACCTAGTGCAG | 8380 fluorescence intensity (a.u.) |
| GGGGAGGGAGAGGCCACGTCGTCAGCCAGCCAGCCATTTCCGGAGTCACCTAGTGCAG | 10500 fluorescence intensity (a.u.) |
| ATATGGTTGTTGCTTTGACTTAATATCTTAATTGGTATTCCGGAGTCACCTAGTGCAG | 11300 fluorescence intensity (a.u.) |

Some of the entries above in a different format:
Sequence | binding signal
TATGGAATTATTATTTATTTTGTTTGTAACTTGCTTTATTCGGAGTCACCTAGTGCAG | 9260 fluorescence intensity (a.u.)
TATTTCCATACCGCTCGCCCGCTCTTTTTTCCGAAATCAGCGGAGTCACCTAGTGCAG | 9770 fluorescence intensity (a.u.)

The results go on.

| Sequence | binding signal |
| --- | --- |
| TCCACTTTTACCTTCCATTCATTTGACGACTGAGACTAAGCGGAGTCACCTAGTGCAG | 8430 fluorescence intensity (a.u.) |
| AACCGATAAGACCATGGATACGTTGCCGGGGCCCAAATACCGGAGTCACCTAGTGCAG | 8210 fluorescence intensity (a.u.) |
| ATTTTACTATAAATACTTATATTTTGGCCTTTTTCTTTTACGGAGTCACCTAGTGCAG | 9480 fluorescence intensity (a.u.) |
| CGACGCGCCATCGCCTCGCCTCTCACCTACTGCCTCGTCCCGGAGTCACCTAGTGCAG | 8820 fluorescence intensity (a.u.) |
| TTTGCCGTTCGTCTTTGCATTGCAGGTTTTTCTCTGAACCCGGAGTCACCTAGTGCAG | 8150 fluorescence intensity (a.u.) |
| TACCTCTTTTGCACTATGGACCACCCTTTTTTCATCTCTCCGGAGTCACCTAGTGCAG | 13500 fluorescence intensity (a.u.) |
| CCAGAAGACTAGCTAACCTATTCCTTTTGATTGTTGAATTCGGAGTCACCTAGTGCAG | 9210 fluorescence intensity (a.u.) |
| TTCGCTAGCTCCTGATTCGGCCATGGCGGGGTGTATTGTTCGGAGTCACCTAGTGCAG | 9220 fluorescence intensity (a.u.) |
| GCCTACTACTACTCTTCTATATCACCTGATAATGCCCAAACGGAGTCACCTAGTGCAG | 8280 fluorescence intensity (a.u.) |
| GACAAACCTAATACTAACCCGCTCGTGTTCTTTGCTTCTCCGGAGTCACCTAGTGCAG | 8650 fluorescence intensity (a.u.) |
| ATACACAAAAATAGTTTTTTATTAGCTTTCTTTCATTTTCCGGAGTCACCTAGTGCAG | 8300 fluorescence intensity (a.u.) |
| ACAGACACAACATTTTTCCTGCCAGCATCATCACACAAGCCGGAGTCACCTAGTGCAG | 9280 fluorescence intensity (a.u.) |
| CAGGGGTAGAGGCTGCTTTTGGATTTGTACTACACTAAAACGGAGTCACCTAGTGCAG | 9160 fluorescence intensity (a.u.) |
| AAACAGTTTGACTTTGACTAAAGTTAAAACGTCTTATAACCGGAGTCACCTAGTGCAG | 10900 fluorescence intensity (a.u.) |
| CCCTTTGCAAAATGTCTACCTAGCCTAACACTTTGACCTGCGGAGTCACCTAGTGCAG | 9810 fluorescence intensity (a.u.) |
| ATCTACTATTTGCATATCTTATCAGTTGCAGGATCAAACTCGGAGTCACCTAGTGCAG | 8120 fluorescence intensity (a.u.) |
| AAACTTGACTTTTATTCGAATCACGCGTAACTCCTGACATCGGAGTCACCTAGTGCAG | 9490 fluorescence intensity (a.u.) |
| AAACAGGACGCTACTACGGCATACACACTTCAGTCACTCGCGGAGTCACCTAGTGCAG | 8230 fluorescence intensity (a.u.) |
| TTCTTTTGTGCTGTCTTGATATCGATATGATCTGCTTATACGGAGTCACCTAGTGCAG | 8900 fluorescence intensity (a.u.) |
| GAAAGAAATCTCGCTCTCGCCTCCTCGCCACCGTTCTCCGCGGAGTCACCTAGTGCAG | 8620 fluorescence intensity (a.u.) |
| AAATAGTTGCCGGCTCACACCCTCTGTCCTCTTCAGCTCACGGAGTCACCTAGTGCAG | 9240 fluorescence intensity (a.u.) |
| ACACCTATCTTGTTCTTATTATACTCCCTCCGTTTCAAAACGGAGTCACCTAGTGCAG | 11400 fluorescence intensity (a.u.) |
| CTAGTTTGATTTTGTCCTGGTTTGGTCGTTGATGGTGAACCGGAGTCACCTAGTGCAG | 9400 fluorescence intensity (a.u.) |
| AGGATATATTTCTCTTTATTTTCATACTTGAACCATCTGTCGGAGTCACCTAGTGCAG | 8980 fluorescence intensity (a.u.) |
| GAGGTGGTGTCGGGGAGGTTGGGAGGTGCAGGATGCATGCCGGAGTCACCTAGTGCAG | 13700 fluorescence intensity (a.u.) |
| CGCCAACCTGTCCTGTTCTGCCGTCCTGCTCCGCTGGCCCCGGAGTCACCTAGTGCAG | 11800 fluorescence intensity (a.u.) |
| CAATCTTGACGGATAGCTCGATCGCGTCGCTTGTTTACTTCGGAGTCACCTAGTGCAG | 11700 fluorescence intensity (a.u.) |

Taken from above.
In binding signal, TTCGCTAGCTCCTGATTCGGCCATGGCGGGGTGTATTGTTCGGAGTCACCTAGTGCAG is entered as 9220 fluorescence intensity (a.u.)
In binding signal, CCTGCTGGTTCGCTCAATTCATCACAGGTATGCTCCCATACGGAGTCACCTAGTGCAG is entered as 8920 fluorescence intensity (a.u.)
